In patent US20150030595A1:
No constants are given. Whether binding was seen depends on the method and setting. For part of these data: Binding seen in cells or lysates may run through a third protein. Some results given as binding are weak or reduced against the parent protein; the word gives no strength.

Protein sequences, listed by entry. Tags and fused reporters are not part of them. Residues count along the entry.
UniProt P27040, residues 19-536: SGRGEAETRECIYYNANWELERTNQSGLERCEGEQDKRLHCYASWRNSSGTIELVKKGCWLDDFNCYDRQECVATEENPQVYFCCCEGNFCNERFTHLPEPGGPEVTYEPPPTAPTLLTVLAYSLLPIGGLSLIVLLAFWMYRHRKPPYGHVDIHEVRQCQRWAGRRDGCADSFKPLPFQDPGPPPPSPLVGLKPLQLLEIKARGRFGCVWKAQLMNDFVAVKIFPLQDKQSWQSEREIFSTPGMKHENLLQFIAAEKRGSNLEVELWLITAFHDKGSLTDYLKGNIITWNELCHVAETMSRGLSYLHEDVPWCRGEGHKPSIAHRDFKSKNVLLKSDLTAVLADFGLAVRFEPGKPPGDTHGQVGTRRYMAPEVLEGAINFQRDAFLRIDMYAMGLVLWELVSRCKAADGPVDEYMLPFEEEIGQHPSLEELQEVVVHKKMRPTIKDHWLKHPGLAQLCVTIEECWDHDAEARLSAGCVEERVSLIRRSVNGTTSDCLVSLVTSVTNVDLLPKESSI

Tests used:
[1] = biological target: ACVR2B in the lysate of the myoblast C2C12 cell line (UniProt P27040); assay: co-immunoprecipitation from C2C12 lysate (IP with the ACVR2B antibody, blot for DLK1); a complex, not shown to be direct
[2] = biological target: T1, myostatin in the lysate of the myoblast C2C12 cell line (UniProt O08689); assay: immunoprecipitation from C2C12 lysate with F08 and B09, western blot
T1 sequence (looked up): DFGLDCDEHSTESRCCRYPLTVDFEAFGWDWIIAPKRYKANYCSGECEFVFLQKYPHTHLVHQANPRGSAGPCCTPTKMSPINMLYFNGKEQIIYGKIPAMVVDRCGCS

[3] = biological target: ACVR2B in the lysate of the myoblast C2C12 cell line (UniProt P27040); assay: as above

Measured: binding

B1: DLK1 in the lysate of the myoblast C2C12 cell line (protein, UniProt Q09163 24-385, looked up)
chain: AECDPPCDPQYGFCEADNVCRCHVGWEGPLCDKCVTAPGCVNGVCKEPWQCICKDGWDGKFCEIDVRACTSTPCANNGTCVDLEKGQYECSCTPGFSGKDCQHKAGPCVINGSPCQHGGACVDDEGQASHASCLCPPGFSGNFCEIVAATNSCTPNPCENDGVCTDIGGDFRCRCPAGFVDKTCSRPVSNCASGPCQNGGTCLQHTQVSFECLCKPPFMGPTCAKKRGASPVQVTHLPSGYGLTYRLTPGVHELPVQQPEQHILKVSMKELNKSTPLLTEGQAICFTILGVLTSLVVLGTVAIVFLNKCETWVSNLRYNHTFRKKKNLLLQYNSGEELAVNIIFPEKIDMTTFNKEAGDEEI
binds: all assays above
